According to US4603134A, “Piperazine derivative and pharmaceutical composition containing the same” (Ferrer International, S.A., priority 1984, dated 1986):

System: isolate of guinea-pig ileum
Assay: Anti-histamine activity in an isolate of guinea-pig ileum, suspended in a Tyrode bath at 32°-35° C.
Settings: Cavia porcellus, isolated guinea-pig ileum, read-out: anti-histamine activity, ED50
Procedure: The anti-histamine activity was tested in an isolate of guinea-pig ileum, suspended in a Tyrode bath at 32°-35° C. according to a protocol described by R. A. Turner (Screening Methods in Pharmacology, Academic Press, 1965, p. 43).

`C(=C\c1ccccc1)/CN1CCN(C(c2ccccc2)c2ccccc2)CC1` [Cinnarizine] gave an IC50 of 170 nM.
